Measurements: patent US12460245B2, “Luciferase sequences utilizing infrared-emitting substrates to produce enhanced luminescence” (Promega Corporation, priority 2014, dated 2025)
Numbering of substitutions follows the chain as printed. Names and notes keep the numbering of the source.

B1: ATG 1240: CBR variant R334S and G351R (SEQ ID NO: 2) (protein)
chain: MVKREKNVIYGPEPLHPLEDLTAGEMLFRALRKHSHLPQALVDVVGDESLSYKEFFEATVLLAQSLHNCGYKMNDVVSICAENNTRFFIPVIAAWYIGMIVAPVNESYIPDELCKVMGISKPQIVFTTKNILNKVLEVQSRTNFIKRIIILDTVENIHGCESLPNFISRYSDGNIANFKPLHFDPVEQVAAILCSSGTTGLPKGVMQTHQNICVRLIHALDPRYGTQLIPGVTVLVYLPFFHAFGFHITLGYFMVGLRVIMFRRFDQEAFLKAIQDYEVRSVINVPSVILFLSKSPLVDKYDLSSLRELCCGAAPLAKEVAEVAAKRLNLPGISCGFGLTESTSAIIQTLRDEFKSGSLGRVTPLMAAKIADRETGKALGPNQVGELCIKGPMVSKGYVNNVEATKEAIDDDGWLHSGDFGYYDEDEHFYVVDRYKELIKYKGSQVAPAELEEILLKNPCIRDVAVVGIPDLEAGELPSAFVVKQPGTEITAKEVYDYLAERVSHTKYLRGGVRFVDSIPRNVTGKITRKELLKQLLVKAGGV
B2: CBR: click beetle red luciferase polypeptide of SEQ ID NO: 1 (protein)
chain: B1 chain with S334R, R351G
B3: ATG 1230: CBR variant I389F, S444R, G251S (SEQ ID NO: 3) (protein)
chain: B1 chain with G251S, S334R, R351G, I389F, S444R

Experiments:
Format in all cases: biochemical
[1] = system: Click Beetle Red Luciferase; assay: Spectral scan of near-IR substrates with purified enzyme; settings: substrate 1 mM in Bright-Glo Assay buffer + 1 mM ATP
[2] = system: UltraGlo® luciferase; assay: as above; settings: substrate 1 mM in Bright-Glo Assay buffer + 1 mM ATP
[3] = Spectral measurements of purified enzymes; settings: purified enzyme; 20 μM PBI-4739; Tecan-M1000 spectral scan
[4] = Spectral measurements of purified enzymes; settings: purified enzyme; 20 μM PBI-4813; Tecan-M1000 spectral scan

Molecule	spectral maximum with Click Beetle Red Luciferase [1]	spectral maximum with UltraGlo® luciferase [2]	spectral max using PBI-4739 as substrate [3]	spectral max using PBI-4813 as substrate [4]
O=C(O)C1CSC(c2nc3ccc4cc(O)ccc4c3s2)=N1 (stereo not shown) [PBI-4739]	760 nm	660 nm	–	–
Nc1ccc2c(ccc3nc(C4=NC(C(=O)O)CS4)sc32)c1 (stereo not shown) [PBI-4813]	655 nm	670 nm	–	–
B1	–	–	about 750 nm	about 725 nm
B2	–	–	about 760 nm	about 650 nm
B3	–	–	about 760 nm	about 650 nm
